Source: PMC6348423, “Rapid Mapping of Protein Interactions Using Tag‐Transfer Photocrosslinkers” (Angewandte Chemie (International Ed. in English), 2018)
No constants are given. Whether binding was seen depends on the method and setting. Some binding calls cover weakened binding; strength is not graded here.

T1: Skp (E. coli) (UniProt P0AEU7)
T1 sequence: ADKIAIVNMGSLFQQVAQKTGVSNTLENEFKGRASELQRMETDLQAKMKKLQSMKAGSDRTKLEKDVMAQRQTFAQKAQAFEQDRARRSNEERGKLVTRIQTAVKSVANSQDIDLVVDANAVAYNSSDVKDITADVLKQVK


The binders below were run against T1, Skp (E. coli) (assay: cross-linking; Skp/OmpA complex assembled by dilution of urea-denatured OmpA into a Skp-containing solution; photoinduced crosslinking at 365 nm (UV LED or Hg-Xe lamp); non-reducing SDS-PAGE; tag transfer, enrichment on thiopropyl Sepharose 6B, LC-MS/MS; both purified).

| Binder | binding |
| --- | --- |
| OmpA(W7C)[MTS-diazirine] (protein, UniProt P0A910 22-346, Cys at 7 conjugated with MTS-diazirine) APKDNTCYTGAKLGWSQYHDTGFINNNGPTHENQLGAGAFGGYQVNPYVGFEMGYDWLGRMPYKGSVENGAYKAQGVQLTAKLGYPITDDLDIYTRLGGMVWRADTKSNVYGKNHDTGVSPVFAGGVEYAITPEIATRLEYQWTNNIGDAHTIGTRPDNGMLSLGVSYRFGQGEAAPVVAPAPAPAPEVQTKHFTLKSDVLFNFNKATLKPEGQAALDQLYSQLSNLDPKDGSVVVLGYTDRIGSDAYNQGLSERRAQSVVDYLISKGIPADKISARGMGESNPVTGNTCDNVKQRAALIDCLAPDRRVEIEVKGIKDVVTQPQA | binds |
| OmpA(T144C)[MTS-diazirine] (protein, UniProt P0A910 22-346, Cys at 144 conjugated with MTS-diazirine) APKDNTWYTGAKLGWSQYHDTGFINNNGPTHENQLGAGAFGGYQVNPYVGFEMGYDWLGRMPYKGSVENGAYKAQGVQLTAKLGYPITDDLDIYTRLGGMVWRADTKSNVYGKNHDTGVSPVFAGGVEYAITPEIATRLEYQWCNNIGDAHTIGTRPDNGMLSLGVSYRFGQGEAAPVVAPAPAPAPEVQTKHFTLKSDVLFNFNKATLKPEGQAALDQLYSQLSNLDPKDGSVVVLGYTDRIGSDAYNQGLSERRAQSVVDYLISKGIPADKISARGMGESNPVTGNTCDNVKQRAALIDCLAPDRRVEIEVKGIKDVVTQPQA | binds |
| OmpA(W7C)[MTS-TFMD] (protein, UniProt P0A910 22-346, Cys at 7 conjugated with MTS-TFMD) APKDNTCYTGAKLGWSQYHDTGFINNNGPTHENQLGAGAFGGYQVNPYVGFEMGYDWLGRMPYKGSVENGAYKAQGVQLTAKLGYPITDDLDIYTRLGGMVWRADTKSNVYGKNHDTGVSPVFAGGVEYAITPEIATRLEYQWTNNIGDAHTIGTRPDNGMLSLGVSYRFGQGEAAPVVAPAPAPAPEVQTKHFTLKSDVLFNFNKATLKPEGQAALDQLYSQLSNLDPKDGSVVVLGYTDRIGSDAYNQGLSERRAQSVVDYLISKGIPADKISARGMGESNPVTGNTCDNVKQRAALIDCLAPDRRVEIEVKGIKDVVTQPQA | binds |
| OmpA(T144C)[MTS-TFMD] (protein, UniProt P0A910 22-346, Cys at 144 conjugated with MTS-TFMD) APKDNTWYTGAKLGWSQYHDTGFINNNGPTHENQLGAGAFGGYQVNPYVGFEMGYDWLGRMPYKGSVENGAYKAQGVQLTAKLGYPITDDLDIYTRLGGMVWRADTKSNVYGKNHDTGVSPVFAGGVEYAITPEIATRLEYQWCNNIGDAHTIGTRPDNGMLSLGVSYRFGQGEAAPVVAPAPAPAPEVQTKHFTLKSDVLFNFNKATLKPEGQAALDQLYSQLSNLDPKDGSVVVLGYTDRIGSDAYNQGLSERRAQSVVDYLISKGIPADKISARGMGESNPVTGNTCDNVKQRAALIDCLAPDRRVEIEVKGIKDVVTQPQA | binds |
